# Data as given in PubChem BioAssay AID1259254 (NCATS, 2017)
# Test: 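Genome-wide screen for genes that prevent DNA re-replication in cancer cells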 (primary screen)
# System: human HCT116 colorectal cancer cells
# Reagents: single siRNA against human genes
# Duration: 3 days
# Detection: 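Nuclei stained with Hoechst and imaged; cell-cycle phase assigned by DNA content; G2 share scaled per plate, non-targeting siRNA 0%, GMNN siRNA 100%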
# Direction: G2 robust z-score and G2 cells, % of GMNN control: higher = more G2 cells, more excess DNA replication; raw share of cells in G2: higher = larger share of cells with G2 DNA content
# Active means: 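An siRNA counts as active if its G2 robust z-score lies at least 5 MADs above the screen median; here such calls match roughly 38% of GMNN control or more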
# Here is one part, drawn at random, of about 59,000 reagents. Of all reagents, about 1,550 (2.6%) are marked active. 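G2 share is only a proxy for re-replication; each gene was hit by three separate siRNAs, and active genes were retested.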 Raw values are not corrected between plates. The numbers tell different reagents against one gene apart. The record does not give: the amount of reagent.
gene,siRNA no.,G2 robust z-score,"G2 cells, % of GMNN control",raw share of cells in G2 (%),Outcome
FARSA (phenylalanyl-tRNA synthetase subunit alpha),1,0.0675,3.44,4.88,inactive
FARSA (phenylalanyl-tRNA synthetase subunit alpha),2,-1.05,-4.45,3.57,inactive
FARSA (phenylalanyl-tRNA synthetase subunit alpha),3,-0.987,-3.98,3.79,inactive
THSD1 (thrombospondin type 1 domain containing 1),1,2.06,17.5,11.2,inactive
THSD1 (thrombospondin type 1 domain containing 1),2,-0.425,-0.0233,4.45,inactive
THSD1 (thrombospondin type 1 domain containing 1),3,0.602,7.21,5.31,inactive
H2BC21 (H2B clustered histone 21),1,-0.219,1.43,5.76,inactive
H2BC21 (H2B clustered histone 21),2,0.899,9.29,7.58,inactive
H2BC21 (H2B clustered histone 21),3,-0.291,0.917,3.67,inactive
HMGN1P38,1,0.306,5.12,5.59,inactive
HMGN1P38,2,1.7,14.9,8.64,inactive
HMGN1P38,3,0.0294,3.17,4.07,inactive
TMEM256 (transmembrane protein 256),1,-0.638,-1.52,2.61,inactive
TMEM256 (transmembrane protein 256),2,0.375,5.6,4.98,inactive
TMEM256 (transmembrane protein 256),3,-1.2,-5.48,1.59,inactive
KCNK15 (potassium two pore domain channel subfamily K member 15),1,0.997,9.98,8.92,inactive
KCNK15 (potassium two pore domain channel subfamily K member 15),2,-0.934,-3.61,3.56,inactive
KCNK15 (potassium two pore domain channel subfamily K member 15),3,-0.492,-0.496,4.18,inactive
RGS19 (regulator of G protein signaling 19),1,-0.506,-0.595,5.44,inactive
RGS19 (regulator of G protein signaling 19),2,-0.522,-0.706,6.2,inactive
RGS19 (regulator of G protein signaling 19),3,-1,-4.08,2.52,inactive
RETREG2 (reticulophagy regulator family member 2),1,-0.0456,2.65,3.4,inactive
RETREG2 (reticulophagy regulator family member 2),2,0.823,8.76,8.39,inactive
RETREG2 (reticulophagy regulator family member 2),3,-0.724,-2.13,3.66,inactive
GNAT1 (G protein subunit alpha transducin 1),1,-0.132,2.04,4.38,inactive
GNAT1 (G protein subunit alpha transducin 1),2,-0.238,1.29,5.71,inactive
GNAT1 (G protein subunit alpha transducin 1),3,-0.569,-1.03,4.87,inactive
NIBAN3 (niban apoptosis regulator 3),1,-0.475,-0.374,3.47,inactive
NIBAN3 (niban apoptosis regulator 3),2,1.98,16.9,8.62,inactive
NIBAN3 (niban apoptosis regulator 3),3,2.47,20.3,9.19,inactive
MIER3 (MIER family member 3),1,-0.83,-2.87,2.57,inactive
MIER3 (MIER family member 3),2,-0.398,0.164,3.01,inactive
MIER3 (MIER family member 3),3,1.97,16.9,8.09,inactive
SAMHD1,1,-0.388,0.24,4.07,inactive
SAMHD1,2,0.218,4.5,8.2,inactive
SAMHD1,3,0.39,5.71,6.08,inactive
SLC6A6,1,-0.46,-0.268,5.59,inactive
SLC6A6,2,-1.08,-4.6,2.97,inactive
SLC6A6,3,-0.521,-0.698,3.73,inactive
GPR139 (G protein-coupled receptor 139),1,1.35,12.5,10.3,inactive
GPR139 (G protein-coupled receptor 139),2,4.35,33.6,16.3,inactive
GPR139 (G protein-coupled receptor 139),3,0.567,6.96,5.4,inactive
UXT (ubiquitously expressed prefoldin like chaperone),1,-0.703,-1.98,4.26,inactive
UXT (ubiquitously expressed prefoldin like chaperone),2,0.347,5.41,6.04,inactive
UXT (ubiquitously expressed prefoldin like chaperone),3,-0.0303,2.75,4.32,inactive
SNCA-AS1 (SNCA antisense RNA 1),1,0.11,3.74,4.24,inactive
SNCA-AS1 (SNCA antisense RNA 1),2,0.695,7.86,6.63,inactive
SNCA-AS1 (SNCA antisense RNA 1),3,0.811,8.67,6.39,inactive
GZMM (granzyme M),1,-0.176,1.73,5.52,inactive
GZMM (granzyme M),2,-0.686,-1.86,3.22,inactive
GZMM (granzyme M),3,-0.631,-1.47,5.05,inactive
"RELB (RELB proto-oncogene, NF-kB subunit)",1,1.27,11.9,8.18,inactive
"RELB (RELB proto-oncogene, NF-kB subunit)",2,0.474,6.3,7.8,inactive
"RELB (RELB proto-oncogene, NF-kB subunit)",3,-0.572,-1.06,2.72,inactive

6 consecutive reagents already listed, quoted:
gene,siRNA no.,G2 robust z-score,"G2 cells, % of GMNN control",raw share of cells in G2 (%),Outcome
HMGN1P38,3,0.0294,3.17,4.07,inactive
TMEM256 (transmembrane protein 256),1,-0.638,-1.52,2.61,inactive
TMEM256 (transmembrane protein 256),2,0.375,5.6,4.98,inactive
TMEM256 (transmembrane protein 256),3,-1.2,-5.48,1.59,inactive
KCNK15 (potassium two pore domain channel subfamily K member 15),1,0.997,9.98,8.92,inactive
KCNK15 (potassium two pore domain channel subfamily K member 15),2,-0.934,-3.61,3.56,inactive

Additional entries follow.
gene,siRNA no.,G2 robust z-score,"G2 cells, % of GMNN control",raw share of cells in G2 (%),Outcome
ELP6 (elongator acetyltransferase complex subunit 6),1,-1.2,-5.48,1.64,inactive
ELP6 (elongator acetyltransferase complex subunit 6),2,0.571,6.99,7.21,inactive
ELP6 (elongator acetyltransferase complex subunit 6),3,0.0572,3.37,4.31,inactive
CCL27 (C-C motif chemokine ligand 27),1,5.6,42.4,24.1,active
CCL27 (C-C motif chemokine ligand 27),2,-0.379,0.301,6.6,inactive
CCL27 (C-C motif chemokine ligand 27),3,2.02,17.2,9.4,inactive
GRM4 (glutamate metabotropic receptor 4),1,-1.38,-6.74,3.43,inactive
GRM4 (glutamate metabotropic receptor 4),2,1.04,10.3,8.11,inactive
GRM4 (glutamate metabotropic receptor 4),3,-0.593,-1.2,2.9,inactive
BLTP3B (bridge-like lipid transfer protein family member 3B),1,-0.454,-0.224,4.9,inactive
BLTP3B (bridge-like lipid transfer protein family member 3B),2,-0.539,-0.825,3.79,inactive
BLTP3B (bridge-like lipid transfer protein family member 3B),3,0.17,4.16,4.73,inactive
TRIM48 (tripartite motif containing 48),1,-0.604,-1.28,5.12,inactive
TRIM48 (tripartite motif containing 48),2,0.0331,3.2,5.39,inactive
TRIM48 (tripartite motif containing 48),3,0.529,6.69,6.71,inactive
SLC29A3,1,1.89,16.3,10.3,inactive
SLC29A3,2,-0.798,-2.65,3.23,inactive
SLC29A3,3,1.84,15.9,13.4,inactive
ZC3H4 (zinc finger CCCH-type containing 4),1,-0.0287,2.77,6.07,inactive
ZC3H4 (zinc finger CCCH-type containing 4),2,0.821,8.74,7.75,inactive
ZC3H4 (zinc finger CCCH-type containing 4),3,-0.238,1.29,3.66,inactive
PI16 (peptidase inhibitor 16),1,1.03,10.2,7.28,inactive
PI16 (peptidase inhibitor 16),2,-0.206,1.52,3.65,inactive
PI16 (peptidase inhibitor 16),3,0.457,6.18,5.17,inactive
HCN1,1,-0.47,-0.338,5.17,inactive
HCN1,2,6.55,49,21.4,active
HCN1,3,-0.693,-1.91,3.63,inactive
"FCGR1BP (Fc gamma receptor Ib, pseudogene)",1,0.55,6.84,7.86,inactive
"FCGR1BP (Fc gamma receptor Ib, pseudogene)",2,4.47,34.4,15.9,inactive
"FCGR1BP (Fc gamma receptor Ib, pseudogene)",3,1.71,15,10.7,inactive
FREY1 (Frey regulator of sperm-oocyte fusion 1),1,-0.135,2.02,3.54,inactive
FREY1 (Frey regulator of sperm-oocyte fusion 1),2,0.347,5.41,4.95,inactive
FREY1 (Frey regulator of sperm-oocyte fusion 1),3,-1.01,-4.14,2.44,inactive
